# Data as given in PubChem BioAssay AID540256 (National Center for Advancing Translational Sciences (NCATS), 2011).
# Out of some 300,000 compounds screened, about 3,700 (1.2%) were called active. This list was built around the results that the source calls inconclusive (neither active nor inactive); the mix of calls is not that of the screen. The call rests on the fitted dose curve; tested in HEK293 cells. Potencies beside an inconclusive call are fits to weak or partial responses and may not hold up.
# Assay: qHTS for Inhibitors of binding or entry into cells for Lassa Virus; further: nearly all actives have a fitted effect of over 50% in size
# Details: Lassa virus pseudotype entry inhibition, cell reporter; series mostly up to 37.9 µM
# Potency means the concentration at half of the fitted maximal effect.
row,Compound,Potency
1,COc1ccc(C)cc1NCc1cccc(OC)c1OC,inactive
2,COc1cc(C(=O)/C=C/Nc2ccc(NC(C)=O)cc2)cc(OC)c1OC,"inconclusive: 6.51 µM [inhibitor, partial curve, poor fit]"
3,Cc1oc(-c2nc3ccccc3n2C)cc1C(=O)c1ccccc1,active: 2.82 µM
4,COc1ccccc1CNC(=O)C(C)n1cccc1C(=O)c1ccccc1 (stereo not drawn),"inconclusive: 8.91 µM [inhibitor, partial curve, poor fit]"
5,Cc1cc(NC(=O)c2cc(Cl)ccc2Cl)no1,inactive
6,O=[N+]([O-])c1ccc2nc(CCCc3nc4ccc([N+](=O)[O-])cc4[nH]3)[nH]c2c1,inactive
7,O=C(NNC(=O)c1c(O)c2ccccc2[nH]c1=O)c1ccccc1,"inconclusive: 35.5 µM [inhibitor, single point]"
8,Cn1cc(C(=O)OCC(=O)Nc2ccccc2Cl)c2ccccc21,"inconclusive: 0.891 µM [inhibitor, single point]"
9,CN(Cc1ccc(C(C)(C)C)cc1)C(=O)C1CCN(C(=O)Nc2ccccc2)CC1,"inconclusive: 7.94 µM [inhibitor, partial curve, poor fit]"
10,CN(Cc1nc(Cc2ccccc2F)no1)Cc1cccc2ncccc12,"inconclusive: 14.1 µM [inhibitor, single point]"
11,Cc1ccc(NC(=O)CN2C(=O)NC3(CCCc4ccccc43)C2=O)c(Cl)c1 (stereo not drawn),"inconclusive: 10 µM [inhibitor, partial curve, poor fit]"
12,CN(CCNC(=O)c1c[nH]c2c1ccc1ccccc12)CCNC(=O)c1c[nH]c2c1ccc1ccccc12,"inconclusive: 3.16 µM [activator, single point]"
13,CCOC(=O)c1c(NC(=O)CN2C(=O)NC3(CCC(C)CC3)C2=O)sc(C(=O)N(C)C)c1C (stereo not drawn),inactive
14,COc1ccc2oc(-c3ccc(C)c(NC(=O)Cc4ccc(Cl)cc4)c3)nc2c1,inactive
15,CCOc1cccc(C(=O)Nc2cccc(-c3nnc(-c4ccccc4)o3)c2)c1,"inconclusive: 16.4 µM [inhibitor, single point]"
16,COc1ccc(NC(=O)CSc2nccn2-c2cccc(OC)c2)cc1,"inconclusive: 7.08 µM [inhibitor, partial curve, poor fit]"
17,CC(=O)c1c(C)[nH]c(C(=O)Nc2cccc(S(=O)(=O)N(C)c3ccccc3)c2)c1C,"inconclusive: 12.6 µM [inhibitor, partial curve]"
18,CCc1noc(C)c1C(=O)Nc1cc(Cl)ccc1N1CCCC1,"inconclusive: 1.41 µM [activator, partial curve, poor fit]"

# A run of entries of the results above, as a working copy:
row,Compound,Potency
14,COc1ccc2oc(-c3ccc(C)c(NC(=O)Cc4ccc(Cl)cc4)c3)nc2c1,inactive
15,CCOc1cccc(C(=O)Nc2cccc(-c3nnc(-c4ccccc4)o3)c2)c1,"inconclusive: 16.4 µM [inhibitor, single point]"
